Some of these results come from one statement about several compounds together.
Each molecule was assayed on Heliothis virescens (tobacco budworm) (assay: Activity against Heliothis virescens (ovo-larvicide, feeding/contact, curative)). Settings: 200 ppm; eggs on artificial diet, 4 days incubation.
Type: in vivo

| SMILES | activity |
| --- | --- |
| C#CC(C)(C#C)NC(=O)c1sc(-c2cccnc2)nc1Cl [Compound 1.127] | over 80% |
| Clc1csc(C2C=CC=NC2c2sc(-c3cccnc3)nc2Cl)n1 (stereo not shown) [Compound 1.001] | over 80% |
| Cc1cccc2sc(NC(=O)c3sc(-c4cccnc4)nc3Cl)nc12 [Compound 1.139] | over 80% |
| COC(=O)c1sccc1NC(=O)c1sc(-c2cccnc2)nc1Cl [Compound 1.140] | over 80% |

The molecules below were run on Bemisia tabaci (cotton white fly) (assay: Activity against Bemisia tabaci (adults, feeding/residual contact, preventive)). Settings: 200 ppm, cotton leaf discs, 6 days after infestation.
Type: in vivo

| SMILES | activity |
| --- | --- |
| O=C(NCC(F)(F)F)c1sc(-c2cccnc2)nc1Cl [Compound 1.005] | over 80% |
| Clc1cccc(-c2sc(-c3cccnc3)nc2Cl)n1 [Compound 1.011] | over 80% |
| O=C(NCCSCc1ccccc1)c1sc(-c2cccnc2)nc1Cl [Compound 1.020] | over 80% |

From patent publication US9756858B2, “Insecticides” (Syngenta Participations AG, priority 2011, dated 2017)
